Data on one substance can be found in patent publication US20100197767A1.

Amino acid sequences for entries named in this document (tags omitted). A change or cut given only in a name is not applied to a line headed by its entry. Residues count along the entry.
UniProt P04386: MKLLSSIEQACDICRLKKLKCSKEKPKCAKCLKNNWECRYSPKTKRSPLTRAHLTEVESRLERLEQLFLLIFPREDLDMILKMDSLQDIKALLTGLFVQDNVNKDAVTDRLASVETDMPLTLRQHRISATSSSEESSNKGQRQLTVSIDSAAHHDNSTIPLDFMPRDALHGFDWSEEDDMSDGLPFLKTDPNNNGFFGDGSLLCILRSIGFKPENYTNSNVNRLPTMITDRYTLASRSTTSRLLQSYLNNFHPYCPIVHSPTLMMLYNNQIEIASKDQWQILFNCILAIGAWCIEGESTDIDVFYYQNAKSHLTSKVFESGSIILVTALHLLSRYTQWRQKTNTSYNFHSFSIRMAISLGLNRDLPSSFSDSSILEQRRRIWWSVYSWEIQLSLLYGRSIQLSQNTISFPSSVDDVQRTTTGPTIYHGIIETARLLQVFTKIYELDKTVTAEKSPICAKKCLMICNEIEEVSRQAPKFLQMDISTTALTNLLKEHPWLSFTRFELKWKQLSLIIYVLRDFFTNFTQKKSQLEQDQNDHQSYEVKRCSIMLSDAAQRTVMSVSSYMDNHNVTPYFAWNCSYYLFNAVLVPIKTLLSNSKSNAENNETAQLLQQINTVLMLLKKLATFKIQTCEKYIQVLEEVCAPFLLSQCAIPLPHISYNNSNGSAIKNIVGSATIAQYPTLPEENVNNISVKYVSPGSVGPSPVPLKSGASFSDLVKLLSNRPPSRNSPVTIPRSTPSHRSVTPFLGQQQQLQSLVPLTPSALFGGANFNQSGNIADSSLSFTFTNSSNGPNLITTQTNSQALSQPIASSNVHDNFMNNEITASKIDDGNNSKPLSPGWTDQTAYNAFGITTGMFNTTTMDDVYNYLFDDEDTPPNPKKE
UniProt A3DH67, residues 673-741: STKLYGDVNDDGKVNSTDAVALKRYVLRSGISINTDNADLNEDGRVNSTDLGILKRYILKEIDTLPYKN

The target in this test is Binding Domain fused to Coh2 (wild-type GAL4-BD/Coh2 fusion protein) (UniProt P04386). Kind of test: mammalian two-hybrid (GAL4-site luciferase reporter) in 293T cells; worded comparison. In general terms: In a reporter assay the amount or activity of a reporter protein is the signal.

These are yes or no findings as the source states them, for the method shown. Some results given as binding are weak or reduced against the parent protein; the word gives no strength.

For the substance “Activation Domain fused to DocS (wild-type VP16-AD/DocS fusion protein) (from UniProt A3DH67 673-741)”, the binding entry is given as “binds”.
